These are yes or no findings as the source states them, for the method shown. Some entries that bind do so weakly or less than the wild type. For some assays here: Sequences can lack the tags named with a protein. Each block holds one binder with its values, some of them ahead of it.
How the values were obtained:
[1] = target: secreted type of FKRP, wild type (sFKRP, Asn33 to the C-terminus, His/Myc) (human) (UniProt Q9H9S5); assay: SEC; culture medium of transfected HEK293T applied to Superdex 200 increase 5/150; fractions analysed by Western blotting with c-Myc antibody
[2] = target: T1, soluble form of fukutin-related protein (sFKRP, residues 45 to C-terminus) (human) (UniProt Q9H9S5); assay: crystal structure; crystals of the Ba2+-bound form of sFKRP soaked with 10 mM acceptor peptide (and CDP-Rbo), 2 h at 293 K; 2.47 Å; both purified
T1 sequence: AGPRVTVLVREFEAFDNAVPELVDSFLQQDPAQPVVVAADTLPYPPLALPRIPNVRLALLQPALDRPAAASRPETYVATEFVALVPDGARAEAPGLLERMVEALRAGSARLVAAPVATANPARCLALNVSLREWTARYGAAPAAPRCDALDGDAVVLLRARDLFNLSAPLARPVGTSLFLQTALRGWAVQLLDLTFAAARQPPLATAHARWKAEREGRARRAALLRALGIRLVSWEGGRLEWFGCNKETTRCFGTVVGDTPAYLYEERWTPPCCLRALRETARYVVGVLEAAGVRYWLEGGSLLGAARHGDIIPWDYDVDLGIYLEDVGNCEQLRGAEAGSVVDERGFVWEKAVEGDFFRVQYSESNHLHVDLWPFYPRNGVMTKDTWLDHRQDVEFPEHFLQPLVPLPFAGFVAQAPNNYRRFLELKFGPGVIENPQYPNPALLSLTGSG

- binding [1]: binds
B1: secreted type of FKRP, wild type (sFKRP, Asn33 to the C-terminus, His/Myc) (enzyme, UniProt Q9H9S5 33-495)
chain: NSRARGPRRASAAGPRVTVLVREFEAFDNAVPELVDSFLQQDPAQPVVVAADTLPYPPLALPRIPNVRLALLQPALDRPAAASRPETYVATEFVALVPDGARAEAPGLLERMVEALRAGSARLVAAPVATANPARCLALNVSLREWTARYGAAPAAPRCDALDGDAVVLLRARDLFNLSAPLARPVGTSLFLQTALRGWAVQLLDLTFAAARQPPLATAHARWKAEREGRARRAALLRALGIRLVSWEGGRLEWFGCNKETTRCFGTVVGDTPAYLYEERWTPPCCLRALRETARYVVGVLEAAGVRYWLEGGSLLGAARHGDIIPWDYDVDLGIYLEDVGNCEQLRGAEAGSVVDERGFVWEKAVEGDFFRVQYSESNHLHVDLWPFYPRNGVMTKDTWLDHRQDVEFPEHFLQPLVPLPFAGFVAQAPNNYRRFLELKFGPGVIENPQYPNPALLSLTGSG

- binding [2]: binds weakly
Binder: ATPAPVAAIGPK (Thr2 O-linked RboP-3GalNAcβ1-3GlcNAcβ1-4(phospho-6)Manα1-) [RboP-(phospho-)core M3 peptide [AT(RboP-3GalNAcβ1-3GlcNAcβ1-4(phospho-6)Manα1-)…]]

Reference: paper PMC6965139, “Crystal structures of fukutin-related protein (FKRP), a ribitol-phosphate transferase related to muscular dystrophy” (Nature Communications, 2020)
